Results reported in PubChem BioAssay AID540256 (National Center for Advancing Translational Sciences (NCATS), 2011).
The campaign covered roughly 300,000 compounds. About 3,700 (1.2%) were called active. The inconclusive results got no clear call from the source; some entries with a clear call stand among them for comparison. The call rests on the fitted dose curve; tested in HEK293 cells. A potency beside an inconclusive call is a rough fit, not a confirmed value.

assay: qHTS for Inhibitors of binding or entry into cells for Lassa Virus; conditions: Lassa virus pseudotype entry inhibition, cell reporter; activity change, negative = inhibition: at 37.9 µM (top of the series) unless noted; further: nearly all actives have a fitted effect of over 50% in size
On the % scale 0 is the no-effect control and ±100 the full control effect; potency means the concentration at half of the fitted maximal effect.

Row | Compound | Potency | activity change, negative = inhibition
1 | C=CCS(=O)(=O)N1CCC(CCOc2ccccc2)(C(=O)OCC)CC1 | inconclusive: 39.8 µM [inhibitor, partial curve, poor fit] | 
2 | CNC(=O)c1c(NC(=O)c2nc(SCc3ccc(C)cc3)ncc2Cl)sc2c1CCCC2 |  | inactive: -15.5% [at 46.1 µM]
3 | CCC(C)(C)n1nnnc1C(c1ccc(C)cc1)N1CCN(Cc2ccc3c(c2)OCO3)CC1 (stereo unspecified) | inconclusive: 29.1 µM [inhibitor, single point] | 
4 | O=S(=O)(CCN1CCN(c2ccccc2O)CC1)c1cc(Cl)ccc1Cl |  | inactive: 3.65%
5 | COc1ccccc1C(C)N(C)Cc1nc(COc2ccccc2)no1 (stereo unspecified) | inconclusive: 1.78 µM [inhibitor, partial curve, poor fit] | 
6 | CC(=O)Nc1cc(C(=O)OCC(=O)c2ccc(Cl)cc2Cl)ccc1C | inconclusive: 18.3 µM [activator, single point] | 
7 | Cc1ccc(NCc2nnc(SCC(=O)O)n2Cc2ccccc2)cc1Cl | inconclusive: 35.5 µM [activator, partial curve, poor fit] | 
8 | COc1ccc(OC)c(-n2c(N)c(C(=O)NCC3CCCO3)c3nc4ccccc4nc32)c1 (stereo unspecified) | inconclusive: 35.5 µM [inhibitor, single point] | 
9 | CCn1nc(C)c(CNC(=O)Nc2ccccc2C(=O)OC)c1C | inconclusive: 35.5 µM [inhibitor, partial curve, poor fit] | 
10 | Cn1cccc1C(=O)C(=O)Nc1ccc(F)c(F)c1 | inconclusive: 17.8 µM [inhibitor, single point] | 
11 | O=C(Cn1cccc1C(=O)c1ccccc1)NCc1ccccc1Cl | inactive | 
12 | CCCNC(=O)/C=C/c1ccc(C(C)C)cc1 | active: 18.4 µM | 
13 | CCc1ccc(-n2c(=O)c3sc4ccccc4c3n(CC(=O)NCc3ccccc3)c2=O)cc1 | inconclusive: 5.62 µM [inhibitor, single point] | 
14 | Cc1ccc(Cc2cnc(NC(=O)c3ccco3)s2)cc1 | inconclusive: 16.4 µM [inhibitor, single point] | 
15 | CC(C)(C)NCC(=Cc1ccccc1)C(=O)c1ccccc1 | active: 7.08 µM | 
16 | Cc1cccn2c(=O)cc(CSc3nnc(NC(=O)COc4ccccc4)s3)nc12 |  | inactive: 4.69% [at 46.1 µM]
17 | FC(F)(F)COc1nc(OCC(F)(F)F)nc(N2CCN(c3ccccc3)CC2)n1 | inconclusive: 1.26 µM [inhibitor, single point] | 
18 | CCOc1ccc(-n2c(C)nc3cc(C(=O)NCc4ccco4)ccc32)cc1 | inconclusive: 35.5 µM [inhibitor, single point] | 
19 | CCN(CC)S(=O)(=O)c1cccc(-c2nnc(SCCCC(=O)c3ccc(F)cc3)o2)c1 | inconclusive: 18.3 µM [inhibitor, partial curve] | 
20 | Cc1ccc(N2CN(Cc3ccco3)CNC2=S)c(C)c1 | inconclusive: 1.26 µM [inhibitor, single point] | 
21 | CN(CC(=O)NCc1ccc(F)cc1)S(=O)(=O)c1ccc2[nH]c3c(c2c1)CCCC3 | inconclusive: 11.2 µM [inhibitor, partial curve, poor fit] | 

Some values from the list.
CNC(=O)c1c(NC(=O)c2nc(SCc3ccc(C)cc3)ncc2Cl)sc2c1CCCC2 | activity change, negative = inhibition: inactive: -15.5% [at 46.1 µM]
Cc1ccc(NCc2nnc(SCC(=O)O)n2Cc2ccccc2)cc1Cl | Potency: inconclusive: 35.5 µM [activator, partial curve, poor fit]

The listing continues:

Row | Compound | Potency | activity change, negative = inhibition
22 | CC1CCCCN1CCCNc1c(C=O)c(=O)[nH]c2ccccc12 (stereo unspecified) | inconclusive: 6.31 µM [inhibitor, single point] | 
23 | COc1cccc(-n2ncc3c(NN=Cc4ccc(C)cc4)ncnc32)c1 | inconclusive: 15.8 µM [inhibitor, partial curve] | 
24 | Cc1ccc(C(=O)O)cc1NC(=S)NC(=O)Cc1ccccc1 | inconclusive: 35.5 µM [activator, single point] | 
25 | Nc1nc(N2CCN(C(=O)c3ccco3)CC2)nc2ccc(Br)cc12 | inconclusive: 20.6 µM [inhibitor, single point] | 
26 | CC1CC(OCC(O)CN2CCN(Cc3ccccc3)CC2)CC(C)(C)C1 (stereo unspecified) | inconclusive: 31.6 µM [inhibitor, single point] | 
27 | COc1ccc(-c2ccc(-c3noc(C(C)C)n3)c(OC)n2)cc1 | inconclusive: 7.08 µM [inhibitor, single point] | 
28 | COCc1c(C(=O)N2CCc3ccccc32)oc2ccccc12 |  | inactive: 2.06% [at 46.1 µM]
29 | Clc1ccccc1-c1nc2nc3ccccc3nc2n1-c1ccc2c(c1)OCO2 | inconclusive: 12.6 µM [activator, partial curve, poor fit] | 
30 | CC(c1ccccc1)n1cc(C(=O)NCc2cccnc2)nn1 (stereo unspecified) |  | inactive: -12.8%
31 | COc1ccc2c(c1)c(=O)cc(-c1ccccc1)n2C | inconclusive: 4.47 µM [activator, partial curve, poor fit] | 
32 | CC(=O)NC(=S)Nc1sc2c(c1C#N)CCCCC2 | inconclusive: 1.58 µM [activator, partial curve, poor fit] | 
33 | COc1ccc(NC(=O)OC[C@@H]2CSCCS(=O)(=O)N2)cc1 | inconclusive: 5.6 µM [activator, full curve, poor fit] | 
34 | CCn1cc(C(=O)O)c(=O)c2cc(F)c(N3CCNC(C)C3)c(F)c21 (stereo unspecified) | inconclusive: 23.1 µM [activator, partial curve, poor fit] | 
35 | COc1cc(O)c(CCC(=O)c2cc(OC)c(OC)c(OC)c2)c(OC)c1 | inconclusive: 29.1 µM [inhibitor, single point] | 
36 | COc1cc(C(C)=O)ccc1OCC(=O)NCCCn1nc(C)cc1C | inconclusive: 1.26 µM [inhibitor, single point] | 
37 | COc1cc(/C=C/C(=O)OCC(=O)NCCc2ccc(S(N)(=O)=O)cc2)ccc1OCC#N |  | inactive: -0.334%
38 | O=C(NC(=S)NCCC1=CCCCC1)c1ccccc1Br | inconclusive: 15.8 µM [inhibitor, partial curve, poor fit] | 
39 | CCc1ccc(OCc2nnc(SCCN3CCOCC3)n2C)cc1 | inconclusive: 2.91 µM [activator, partial curve, poor fit] | 
40 | CC(C)CCNc1nnnc2c1sc1nc(N3CCOCC3)c3c(c12)CC(C)(C)SC3 | inconclusive: 11.6 µM [inhibitor, partial curve] | 
41 | COc1ccc(CNC(=O)c2ccc(N(C)S(=O)(=O)c3ccc(C)cc3)cc2)cc1 | inconclusive: 15.8 µM [inhibitor, partial curve, poor fit] | 
